PubChem BioAssay AID540276 (National Center for Advancing Translational Sciences (NCATS), 2011)
Among all 300,000 compounds or so, about 5,400 (1.8%) were called active. The shares of active, inactive and inconclusive entries below differ from those in the screen. Calls follow the shape of the full dose curve; tested in HEK293 cells. A potency beside an inconclusive call is a rough fit, not a confirmed value.

assay: qHTS for inhibitors of binding or entry into cells for Marburg Virus; conditions: Marburg virus pseudotyped entry inhibition, cell reporter; activity change, negative = inhibition: at 37.8 µM (top of the series) unless noted
% is scaled to controls: 0 for no effect and ±100 for the full control effect; potency is read from the fitted curve at half-maximal effect.

| Compound | Potency | activity change, negative = inhibition |
| --- | --- | --- |
| CCOC(=O)C1CCCCN1Cc1ccc(-c2ccccc2)cc1 (configuration not stated) | inconclusive: 22.4 µM [inhibitor, single point] | – |
| CC1CCCCN1C(=O)c1cc(F)c(F)cc1Cl (configuration not stated) | – | inactive: -5.08% |
| CCOC(=O)CN1C(=O)C(Sc2n[nH]c(-c3ccccc3)n2)CCc2ccccc21 (configuration not stated) | inconclusive: 32.6 µM [inhibitor, single point] | – |
| CN1Cc2cc(C(=O)c3cc(Cl)cc(CSc4ncccn4)c3O)cnc2NC1=O | – | inactive: 4.64% |
| CCCCCOc1ccc(Br)cc1/C(C)=N/NC1=NCCN1 | active: 10 µM | – |
| Clc1ccc(-c2nnc(N3CCOCC3)o2)cc1 | inconclusive: 22.4 µM [activator, single point] | – |
| Nc1nc(CN2CCC(Cc3ccccc3)CC2)nc(Nc2ccccc2)n1 | inconclusive: 14.6 µM [inhibitor, partial curve, poor fit] | – |
| O=C(NC(NC(=S)Nc1ccccc1)C(Cl)(Cl)Cl)c1cccc(Cl)c1 (configuration not stated) | inconclusive: 32.6 µM [inhibitor, single point] | – |
| CCN(c1ccccc1)S(=O)(=O)c1ccc(NC(=O)c2nc(SC)ncc2Cl)cc1 | inconclusive: 14.1 µM [inhibitor, single point] | – |
| O=C(CCC(=O)N1CCN(c2ccc(F)cc2)CC1)c1ccc(F)cc1 | inconclusive: 29.1 µM [activator, partial curve, poor fit] | – |
| COc1ccc(C2c3c(-c4ccccc4O)n[nH]c3C(=O)N2CCc2ccc(OC)c(OC)c2)cc1 (configuration not stated) | inconclusive: 17.8 µM [inhibitor, single point] | – |
| CCOC(=O)C1=NN(C(=O)Cc2ccccc2)C(O)(C(C)(C)C)C1 (configuration not stated) | – | inconclusive: 0.582% [activator] [at 46.1 µM] |
| COC(=O)c1ccc(N2CCCCC2)c(NS(=O)(=O)c2ccc(C)cc2)c1 | inconclusive: 20.6 µM [inhibitor, single point] | – |
| O=C(Nc1nnc(C2CC2)o1)c1ccc(S(=O)(=O)N2CCCc3ccccc32)cc1 | – | inactive: 3.26% |
| O=S(=O)(c1ccc(F)c(F)c1F)N1CCN(c2ncnc3sccc23)CC1 | inconclusive: 2.24 µM [inhibitor, full curve] | – |
| Cc1cccc(-n2c(SCC(=O)Nc3ncc(Cl)cc3Cl)nc3ccccc32)c1 | active: 1.16 µM | – |
| Cc1ccc(-n2c(SCC(=O)N/N=C/C=C/c3ccccc3[N+](=O)[O-])nc3ccccc3c2=O)cc1 | inconclusive: 29.1 µM [inhibitor, single point] | – |
| Cc1ccc(O)c(Nc2nc(-c3ccccc3)nc3ccccc23)c1 | inconclusive: 0.501 µM [inhibitor, full curve, poor fit] | – |
| CCOc1ccc(NCc2cccn2-c2nnc(N3CCC(C(=O)NCC(C)c4ccccc4)CC3)s2)cc1 (configuration not stated) | inconclusive: 31.6 µM [inhibitor, partial curve, poor fit] | – |
| COc1cc(/C=N/NC(=O)c2cc(-c3cccc(Br)c3)nc3ccccc23)cc(OC)c1O | inconclusive: 35.5 µM [inhibitor, single point] | – |
| Cc1cnc(NC(=O)CCNC(=O)c2ccccc2Cl)s1 | inconclusive: 1.58 µM [activator, partial curve, poor fit] | – |
| COc1ccc(NC(=O)CN(C)C(=O)c2sc3ccccc3c2Cl)cc1 | – | inactive: 21.2% |
| O=C(C[n+]1ccc(-c2cc(C(=O)Nc3cccc(C(F)(F)F)c3)c3ccccc3n2)cc1)c1cccc([N+](=O)[O-])c1 | inconclusive: 35.5 µM [inhibitor, single point] | – |
| Cc1cc(C)cc(NC(=O)C(Sc2ncnc3ccccc23)c2ccccc2)c1 (configuration not stated) | – | inactive: -17.6% |

| Compound | Potency | activity change, negative = inhibition |
| --- | --- | --- |
| CC1C(=O)Nc2ccc(S(=O)(=O)N3CCCCC3)cc2NC1=O (configuration not stated) | – | inactive: -27.1% [at 46.1 µM] |
| CCN(Cc1nc2ccccc2c(=O)[nH]1)C(=O)c1cccc(OCc2c(C)noc2C)c1 | inconclusive: 35.5 µM [inhibitor, single point] | – |
| O=C(O)CCCC(=O)NCCCCc1ccccc1 | inconclusive: 6.51 µM [inhibitor, single point] | – |
| CC1=C(c2ccc(Cl)cc2)S(=O)(=O)NC1=NCCCN1CCN(c2cc(C)ccc2C)CC1 | – | inactive: -11.9% [at 46.1 µM] |
| O=C(c1[nH]ncc1-c1ccccc1)C1CO1 (configuration not stated) | – | inactive: -12.3% [at 46.1 µM] |
| CCOc1ccc(CC(=O)NCCS(=O)(=O)N2CCN(c3ccccc3)CC2)cc1 | – | inactive: 12.2% |
| Cn1c(SCC(=O)N2CCOCC2)nc2c(c1=O)SCC2 | – | inactive: 13.4% |
| COc1ccc(-c2cc(C(=O)Nc3c(C(=O)c4ccc(C)cc4)oc4ccccc34)no2)cc1 | – | inactive: 20% [at 46.1 µM] |
| O=C(c1ccc2c(c1)N(Cc1ccccc1F)C(=O)c1ccccc1S2(=O)=O)N1CCC(Cc2ccccc2)CC1 | – | inactive: -6.94% [at 46.1 µM] |
| COc1ccccc1CNC(=O)C1CCCN(S(=O)(=O)c2ccc3c(c2)oc(=O)n3C)C1 (configuration not stated) | – | inactive: -6.2% [at 46.1 µM] |
| COc1ccc(NC(=O)CSc2nc3ccccc3c(=O)n2CCC(=O)N2CCCCC2)cc1 | inconclusive: 10.3 µM [inhibitor, partial curve] | – |
| O=S(=O)(Nc1ccc2c3c(cccc13)CC2)c1ccc(F)cc1 | inconclusive: 22.4 µM [inhibitor, single point] | – |
| S=c1[nH]c(-c2cccs2)cn1-c1ccccc1 | inconclusive: 7.08 µM [activator, partial curve, poor fit] | – |
| Cc1c(Cl)cccc1NC(=O)CC1Oc2ccccc2NC1=O (configuration not stated) | inconclusive: 35.5 µM [inhibitor, single point] | – |
| COC(=O)c1c(NC(=O)c2ccco2)sc(C)c1C | – | inactive: 1.03% |
| Cc1cccnc1NS(=O)(=O)c1cccc([N+](=O)[O-])c1 | inconclusive: 5.62 µM [inhibitor, single point] | – |
| O=C(CN(Cc1ccco1)C(=O)c1ccc(Cl)cc1)Nc1ccc(Cl)c(Cl)c1 | inconclusive: 5.62 µM [inhibitor, single point] | – |
| CCOC(=O)c1ccc(N2C(=O)c3[nH]nc(-c4ccccc4)c3C2c2ccc(CC)cc2)cc1 (configuration not stated) | inconclusive: 35.5 µM [inhibitor, single point] | – |
| Cc1cc(C)n2nc(CC#N)c(C#N)c2n1 | – | inactive: 22.7% [at 46.1 µM] |
| Cc1ccccc1NC(=O)C(C#N)Cc1cccnc1 (configuration not stated) | inconclusive: 5.62 µM [inhibitor, single point] | – |
| COc1ccc(C(=O)N2N=C3CC(C)(C)OCC3C2c2ccccc2)cc1 (configuration not stated) | inconclusive: 2.31 µM [inhibitor, full curve] | – |
| N#Cc1c(N)nc(SCc2ccncc2)c(C#N)c1-c1cccs1 | inconclusive: 10.3 µM [inhibitor, partial curve, poor fit] | – |
| CCOC(=O)CN1NC2(CCC(C(C)(C)C)CC2)NC1=S (configuration not stated) | – | inactive: -1.28% |
| CCN(c1cccc(C)c1)S(=O)(=O)c1cc2c3c(c1)CCN3C(=O)CC2 | inconclusive: 6.31 µM [inhibitor, single point] | – |

| Compound | Potency | activity change, negative = inhibition |
| --- | --- | --- |
| Cc1cccc2c3nc4ccccc4nc3n(C)c12 | inconclusive: 7.94 µM [activator, single point] | – |
| CSc1ccc(C(=O)C2CCCN(C(=O)c3cc4cc(F)ccc4[nH]3)C2)cc1 (configuration not stated) | – | inactive: 2.78% |
| O=C(O)c1ccc2c(c1)ncn2C1CCCCCC1 | – | inactive: 10.1% |
| Cc1cccnc1CCNC(=O)CCc1nnc(CCc2ccccc2)o1 | – | inactive: 19.1% [at 46.1 µM] |
| COc1cccc2cc(-c3cn4cccc(C)c4n3)c(=O)oc12 | inconclusive: 6.51 µM [activator, single point] | – |
| COC(=O)c1ccc(NC(=O)c2ccc3nccnc3c2)cc1 | – | inactive: -2.67% [at 46.1 µM] |
| Cc1noc(C)c1CSCC(=O)N(C)CC(=O)Nc1ccc(F)cc1 | inconclusive: 5.62 µM [inhibitor, single point] | – |
| O=C(COC(=O)c1ccc(F)cc1)Nc1cc(S(=O)(=O)N2CCOCC2)ccc1N1CCCC1 | – | inactive: 17.5% [at 46.1 µM] |
| Cc1cc(NC(=O)CCSc2ccccc2)no1 | inconclusive: 11.2 µM [activator, partial curve, poor fit] | – |
| O=c1c2sc3ccccc3c2n(Cc2cccc(F)c2)c(=O)n1Cc1ccccc1 | – | inactive: -2.27% [at 46.1 µM] |
| C[C@@H]1C=CCCO[C@]12C(=O)N(CC1CC1)c1ccccc12 | inconclusive: 5.31 µM [activator, single point] | – |
| COc1ccc(NS(=O)(=O)c2cccc(C(=O)NCC(c3ccco3)N3CCCCC3)c2)cc1 (configuration not stated) | inconclusive: 35.5 µM [inhibitor, single point] | – |
| CN(C)c1nc(SCC#N)nc(N2CCOCC2)n1 | inconclusive: 0.891 µM [inhibitor, single point] | – |
| O=C(NNC(=S)Nc1ccccc1C(F)(F)F)c1cccnc1 | – | inactive: 1.6% [at 14.2 µM] |
| O=C(Nc1ccc(Cl)cn1)C1CCN(c2ncnc3c2nc2n3CCCCC2)CC1 | active: 3.55 µM | – |
| NC(=O)c1ccc(Oc2ccc3ccc(=O)oc3c2)c([N+](=O)[O-])c1 | inconclusive: 5.62 µM [inhibitor, single point] | – |
| COc1ccc(NC(=O)CC2C(=O)N(c3cccc(OC)c3)C(=O)N2CCc2cccs2)cc1 (configuration not stated) | – | inactive: 1.15% [at 46.1 µM] |
| COc1ccc(C2CC(C(F)(F)F)n3nc(CO)c(Cl)c3N2)cc1OC (configuration not stated) | – | inactive: -24.3% |
| N#CC1=C(N)Oc2c(c(=O)oc3ccccc23)C1c1cccnc1 (configuration not stated) | – | inactive: 11.9% |
| O=C(COc1ccccc1F)Nc1ccc2nc(SCCOc3ccccc3)sc2c1 | – | inactive: -4.04% [at 46.1 µM] |
| COc1cc(C)cc(OC)c1OCC(=O)Nc1cc(C)on1 | inconclusive: 3.98 µM [activator, full curve] | – |
| Cc1ccc(N(C(=O)CNC(=O)c2ccco2)C(C(=O)NC2CCCCC2)c2ccncc2)c(C)c1 (configuration not stated) | – | inactive: 0.775% [at 46.1 µM] |
| CC1CCN(Cc2c(O)ccc3c(=O)c(Oc4ccccc4Cl)c(C(F)(F)F)oc23)CC1 | – | inactive: 0.686% [at 46.1 µM] |
| CS(=O)(=O)c1ccc(S(=O)CC(=O)OCc2ccccc2)c([N+](=O)[O-])c1 (configuration not stated) | inconclusive: 0.562 µM [inhibitor, full curve, poor fit] | – |

Quoted at random: five entries already listed, in no set order.

| Compound | Potency | activity change, negative = inhibition |
| --- | --- | --- |
| NC(=O)c1ccc(Oc2ccc3ccc(=O)oc3c2)c([N+](=O)[O-])c1 | inconclusive: 5.62 µM [inhibitor, single point] | – |
| COc1cc(C)cc(OC)c1OCC(=O)Nc1cc(C)on1 | inconclusive: 3.98 µM [activator, full curve] | – |
| COc1ccc(C2CC(C(F)(F)F)n3nc(CO)c(Cl)c3N2)cc1OC (configuration not stated) | – | inactive: -24.3% |
| Cc1cccc2c3nc4ccccc4nc3n(C)c12 | inconclusive: 7.94 µM [activator, single point] | – |
| COC(=O)c1ccc(NC(=O)c2ccc3nccnc3c2)cc1 | – | inactive: -2.67% [at 46.1 µM] |
